Test results from the supplement of paper PMC7877785.
± gives the uncertainty stated by the source. The uncertainty is large for many entries.

Test: self-splicing fitness, log relative to wild type (ln ratio); higher = more splicing; Tetrahymena group I intron in knt gene, E. coli kanamycin selection, DiMSum; sequences stand for … in CUCUCU…GGAGGGAAAAGUUAUCAGGCAUGCACCUGGUAGCUAGUCUUUAAACCAAUAGAUUGCAUCGGUUUAAAAGGCAAGACCGUCAAAUUGCGGGAAAGGGGUCAACAGCCGUUCAGUACCAAGUCUCAGGGGAAACUUUGAGAUGGCCUUGCAAAGGGUAUGGUAAUAAGCUGACGGACAUGGUCCUAACCACGCAGCCAAGUCCUAAGUCAACAGAUCUUCUGUUGAUAUGGAUGCAGUUCACAGACUAAAUGUCGGUCGGGGAAGAUGUAUUCUUCUCAUAAGAUAUAGUCGGACCUCUCCUUAAUGGGAGCUAGCGGAUGAAGUGAUGCAACACUGGAGCCGCUGGGAACUAAUUUGUAUGCGAAAGUAUAUUGAUUAGUUUUGGAGUACUCGUGGUCG
Outline: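 Pooled colonies went to amplicon sequencing on an Illumina HiSeq 2500 after six replicate transformations. The plates were LB agar with 100 μg/mL carbenicillin, 50 μM IPTG and 0.2% rhamnose, with or without 25 μg/mL kanamycin, incubated overnight at 37°C or 30°C. The E. coli BL21(DE3) library had all eight P1ex-region intron nucleotides randomised, the intron placed in the knt kanamycin-resistance gene on pET-22b(+). DiMSum fitness is the error-weighted combination of replicate fold changes, kanamycin against none, normalised to wild type.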

Sequence	self-splicing fitness (ln) (30 °C)	self-splicing fitness (ln) (37 °C)
GUAUAGCAAUAUUACGAUGG	-3.43 ± 0.35	-0.958 ± 0.24
CUAUAGCAAUAUUACGACUC	-3.69 ± 0.59	–
UUCUAGCAAUAUUACGGUCU	-4.46 ± 1	–
ACGGAGCAAUAUUACGUACA	-2.48 ± 0.56	-2.15 ± 0.64
GCGGAGCAAUAUUACGGUAC	-1.39 ± 0.63	–
GGGUAGCAAUAUUACGUACC	-2.52 ± 0.66	-1.39 ± 0.61
AAAUAGCAAUAUUACGAGAA	-2.43 ± 0.71	–
CUGGAGCAAUAUUACGGCGC	-3.47 ± 0.76	–
UGGUAGCAAUAUUACGAAGC	-3.66 ± 1	-4.49 ± 1
GCUUAGCAAUAUUACGGCCA	-1.93 ± 0.67	–
CACUAGCAAUAUUACGGCCA	–	-2.51 ± 0.54
CCAAAGCAAUAUUACGCCGC	-3.32 ± 0.53	–
GGAUAGCAAUAUUACGCGGU	-2.47 ± 0.33	-2.6 ± 0.38
CGGGAGCAAUAUUACGAUAG	-2.71 ± 1.1	–
AAUUAGCAAUAUUACGGGCC	-3.81 ± 0.74	–
UCCUAGCAAUAUUACGGUCC	–	-1.52 ± 0.56
UUGGAGCAAUAUUACGAUAU	-3.92 ± 0.6	–
CUAGAGCAAUAUUACGGAAA	–	-2.03 ± 1.1
UCUAAGCAAUAUUACGUACC	-3.08 ± 0.78	–
ACAUAGCAAUAUUACGUUAC	–	-2.15 ± 0.72
AUGAAGCAAUAUUACGCCGC	-1.52 ± 0.55	-0.276 ± 0.92
CAGGAGCAAUAUUACGAUCC	-0.86 ± 0.91	–
CGAUAGCAAUAUUACGUUAA	-3.59 ± 0.21	-1.15 ± 0.16
CGGAAGCAAUAUUACGAAAC	-3 ± 0.55	-1.29 ± 1.2
AAGUAGCAAUAUUACGUUGC	-3.66 ± 0.14	-3.19 ± 0.21

Sequence	self-splicing fitness (ln) (30 °C)	self-splicing fitness (ln) (37 °C)
UAAGAGCAAUAUUACGGGUC	-6.01 ± 1	–
UUAUAGCAAUAUUACGCCCC	-1.52 ± 0.87	–
AAGGAGCAAUAUUACGCUUC	-4.28 ± 0.59	–
ACGGAGCAAUAUUACGAACA	–	-1.54 ± 1.2
GGCAAGCAAUAUUACGCCGC	-2.09 ± 1	-1.86 ± 0.58
GCUAAGCAAUAUUACGCCCA	-1.23 ± 0.52	-1.25 ± 0.63
CCAAAGCAAUAUUACGACGC	–	-3.88 ± 0.59
UCUGAGCAAUAUUACGGUAC	–	-0.95 ± 0.73
GUUUAGCAAUAUUACGCGGC	–	-1.33 ± 0.82
GCAAAGCAAUAUUACGCAGA	-3.4 ± 1.1	–
UUGCAGCAAUAUUACGGUAA	-0.988 ± 0.099	-0.0317 ± 0.093
GGGAAGCAAUAUUACGCAUC	-2.36 ± 0.39	-1.77 ± 0.32
UGAUAGCAAUAUUACGAAAC	–	-1.78 ± 1.2
CAACAGCAAUAUUACGGCUA	-1.28 ± 0.073	-0.553 ± 0.073
GUAUAGCAAUAUUACGCAUA	-2.3 ± 0.28	-0.525 ± 0.27
GGAUAGCAAUAUUACGUGUC	–	-3.26 ± 0.52
AGCGAGCAAUAUUACGAAGA	-4.21 ± 0.52	–
CUGAAGCAAUAUUACGAACC	-0.0743 ± 0.58	–
CAUUAGCAAUAUUACGCGGC	-3.98 ± 0.28	-1.8 ± 0.28
GGCGAGCAAUAUUACGGUGU	-2.02 ± 0.25	-1.55 ± 0.17
CAACAGCAAUAUUACGGCAA	-1.45 ± 0.13	-1.28 ± 0.12
CGGGAGCAAUAUUACGCCAG	-2.44 ± 0.57	-1.15 ± 0.84
UCUCAGCAAUAUUACGACCC	-4.29 ± 1.1	–
AUAAAGCAAUAUUACGAAUA	-0.578 ± 0.14	-0.302 ± 0.26
AUGCAGCAAUAUUACGGAAC	-4.99 ± 0.58	–

A different layout for some results above.
Sequence | self-splicing fitness (ln) (30 °C) | self-splicing fitness (ln) (37 °C)
GCAAAGCAAUAUUACGCAGA | -3.4 ± 1.1 | –
UUGCAGCAAUAUUACGGUAA | -0.988 ± 0.099 | -0.0317 ± 0.093
GGGAAGCAAUAUUACGCAUC | -2.36 ± 0.39 | -1.77 ± 0.32

Next part.

Sequence	self-splicing fitness (ln) (30 °C)	self-splicing fitness (ln) (37 °C)
ACUGAGCAAUAUUACGGGAC	-2.98 ± 0.65	-1.43 ± 0.28
UCCGAGCAAUAUUACGGAAC	–	-2.2 ± 0.56
GGAGAGCAAUAUUACGUCCC	-3.5 ± 1	–
CACGAGCAAUAUUACGGUUC	-4.71 ± 0.58	–
UUUAAGCAAUAUUACGGGUU	-2.83 ± 0.3	-1.67 ± 0.22
CUUCAGCAAUAUUACGUUUA	-3.96 ± 0.3	-2.49 ± 0.23
UUACAGCAAUAUUACGAACC	–	-1.55 ± 0.84
CCGCAGCAAUAUUACGGCGC	-2.21 ± 0.51	–
CAGGAGCAAUAUUACGUGAC	–	-2.06 ± 0.65
CUAUAGCAAUAUUACGAGUU	-3.04 ± 0.16	-0.864 ± 0.18
AGCCAGCAAUAUUACGCAGC	-3.83 ± 0.52	–
GAGAAGCAAUAUUACGGGGG	-2.71 ± 0.54	–
UCCAAGCAAUAUUACGGCCC	-2.47 ± 0.59	–
UGGAAGCAAUAUUACGAAUC	-3.11 ± 0.53	-2.48 ± 0.77
GCAGAGCAAUAUUACGGCGG	-3.77 ± 0.59	-1.16 ± 0.63
AGCGAGCAAUAUUACGUCCG	-4.04 ± 1.1	-0.595 ± 1.4
CCGUAGCAAUAUUACGACAG	-0.678 ± 0.11	-0.234 ± 0.13
CACAAGCAAUAUUACGCCCC	-2 ± 0.57	-1.35 ± 0.71
GGGUAGCAAUAUUACGCUUC	–	-2.48 ± 1.1
CGGGAGCAAUAUUACGCAAA	-3.33 ± 0.52	–
ACGGAGCAAUAUUACGAAUA	-2.17 ± 0.82	-3.76 ± 0.59
UCCAAGCAAUAUUACGGAAC	-5.09 ± 1	–
UGAAAGCAAUAUUACGAGUU	-3.31 ± 0.15	-0.915 ± 0.095
AGCGAGCAAUAUUACGUCAC	-3.03 ± 0.77	-3.08 ± 0.74
UCUUAGCAAUAUUACGGUCU	-4.42 ± 0.42	-2.67 ± 0.32

Sequence	self-splicing fitness (ln) (30 °C)	self-splicing fitness (ln) (37 °C)
GGGAAGCAAUAUUACGCUCA	-0.366 ± 0.67	–
UCCGAGCAAUAUUACGCACC	-2.09 ± 1	-0.234 ± 1.4
UACGAGCAAUAUUACGUCGU	–	-3.49 ± 1
GUGAAGCAAUAUUACGGCCC	–	1.1 ± 0.53
CCGGAGCAAUAUUACGCAAG	-4.81 ± 0.72	-3.39 ± 1
AAGCAGCAAUAUUACGAGAA	-2.53 ± 0.84	–
GUGGAGCAAUAUUACGGUGG	-3.76 ± 0.23	-2.5 ± 0.23
UGGUAGCAAUAUUACGGAGU	–	-3.39 ± 0.6
AUUUAGCAAUAUUACGCUGC	-2.29 ± 0.72	-0.397 ± 0.54
CCGAAGCAAUAUUACGACCU	-3.73 ± 0.32	-2.3 ± 0.36
UGAGAGCAAUAUUACGAUUC	-3.41 ± 0.73	–
GGGCAGCAAUAUUACGUCCC	–	-2.39 ± 1.1
GGUCAGCAAUAUUACGCCCC	–	-2.08 ± 1.1
ACAAAGCAAUAUUACGGGAA	-2.44 ± 0.18	-2.48 ± 0.17
CGAGAGCAAUAUUACGGUCU	-0.974 ± 0.93	-0.909 ± 0.55
UCGAAGCAAUAUUACGUGGC	-6.08 ± 1	–
AGUUAGCAAUAUUACGCCAG	–	-1.1 ± 0.76
UAAGAGCAAUAUUACGAUCC	–	-2.29 ± 0.56
CAGGAGCAAUAUUACGUGAA	-3.52 ± 0.38	-3.2 ± 0.43
ACUGAGCAAUAUUACGUACC	-1.65 ± 0.55	-1.83 ± 1.1
AUCGAGCAAUAUUACGAUCC	–	-0.595 ± 1.4
UACUAGCAAUAUUACGUCAC	–	-2.39 ± 0.76
AGUGAGCAAUAUUACGUAGG	–	-3.53 ± 0.52
UCCAAGCAAUAUUACGAGAU	–	-4.35 ± 0.59
UUCGAGCAAUAUUACGUAUU	-4.02 ± 0.59	–

Full records from above.
ACAAAGCAAUAUUACGGGAA reads self-splicing fitness (ln) (30 °C): -2.44 ± 0.18; self-splicing fitness (ln) (37 °C): -2.48 ± 0.17
AGUUAGCAAUAUUACGCCAG reads self-splicing fitness (ln) (37 °C): -1.1 ± 0.76

Remaining list, next part:

Sequence	self-splicing fitness (ln) (30 °C)	self-splicing fitness (ln) (37 °C)
UUACAGCAAUAUUACGGAAG	-3 ± 0.13	-2.05 ± 0.14
GAUCAGCAAUAUUACGCCCC	–	-0.687 ± 0.87
GGCUAGCAAUAUUACGGCCU	–	-2.06 ± 0.65
GUGUAGCAAUAUUACGCCUC	-0.868 ± 1.4	–
AUUUAGCAAUAUUACGCCGG	-2.85 ± 0.63	0.459 ± 1.2
AUUGAGCAAUAUUACGGUCC	-4.32 ± 1	–
GGAAAGCAAUAUUACGCUUC	–	-1.97 ± 0.57
AUGGAGCAAUAUUACGCGAG	–	-0.466 ± 0.56
UACGAGCAAUAUUACGACCA	–	-2.07 ± 0.78
CGCGAGCAAUAUUACGAAUC	–	-2.5 ± 0.79
CGGGAGCAAUAUUACGAAUU	–	-2.72 ± 0.53
CCUGAGCAAUAUUACGAAAC	–	-2.2 ± 0.5
UUCUAGCAAUAUUACGGAAG	-2.14 ± 0.66	–
AUGGAGCAAUAUUACGUCAU	-2.29 ± 0.52	–
CUCAAGCAAUAUUACGCCUU	-4.27 ± 0.51	–
UGCGAGCAAUAUUACGUCUC	–	-2.26 ± 0.57
GUACAGCAAUAUUACGUCAC	-3.78 ± 0.52	–
GUGGAGCAAUAUUACGCAUA	-2.88 ± 0.59	–
AUUGAGCAAUAUUACGAUGC	–	-2.43 ± 0.55
AUAGAGCAAUAUUACGAAGG	-3.04 ± 0.55	–
CUUUAGCAAUAUUACGUUAC	-3.92 ± 0.34	-1.74 ± 0.29
